The series in a line: general procedure: Fmoc solid-phase peptide synthesis; Rink Amide MBHA, Biotin Novatag, Biotin PEG Novatag, Sieber Amide; HATU/DIEA. The conditions noted are these: whole synthesis, cyclic, sequence written open.

For one substance, outcome results are on record in paper PMC10195864 (Communications Chemistry, 2023).

As to (YYTYT-Tz1), the outcome is reported as “The cyclic peptide (YYTYT-Tz1) could not be isolated from the synthesis”.
